The target in this assay is TPR1 domain of human Hop protein (codons 1-118) (human) (UniProt P31948). Nature of the assay: ITC, 25 °C.

Results are given in words; binding and its absence hold for the method and conditions named. Some results given as binding are weak or reduced against the parent protein; the word gives no strength.

Take GPTIEEVD (acetylated N-terminus) [Hsp70 peptide GPTIEEVD]: the binding result is listed as “binds”.
In the case of GASSGPTIEEVD (acetylated N-terminus) [C-terminal dodecamer peptide of Hsp70, …], the binding entry was “binds”.

The record behind these values is patent US20030138848A1, “3D structure of polypeptides containing a TPR-structure motif with chaperone-binding function, crystals thereof and compounds for inhibition of said polypeptides” (priority 2000, published 2003).
